The supplement of paper PMC6411743
± gives the standard deviation of the averaged measurements. Some of the results follow.

Chains of the proteins cited; added tags and fusions are not shown. Lines headed by an entry give the natural chain unless they say otherwise; changes in a name come on top.
UniProt P17844: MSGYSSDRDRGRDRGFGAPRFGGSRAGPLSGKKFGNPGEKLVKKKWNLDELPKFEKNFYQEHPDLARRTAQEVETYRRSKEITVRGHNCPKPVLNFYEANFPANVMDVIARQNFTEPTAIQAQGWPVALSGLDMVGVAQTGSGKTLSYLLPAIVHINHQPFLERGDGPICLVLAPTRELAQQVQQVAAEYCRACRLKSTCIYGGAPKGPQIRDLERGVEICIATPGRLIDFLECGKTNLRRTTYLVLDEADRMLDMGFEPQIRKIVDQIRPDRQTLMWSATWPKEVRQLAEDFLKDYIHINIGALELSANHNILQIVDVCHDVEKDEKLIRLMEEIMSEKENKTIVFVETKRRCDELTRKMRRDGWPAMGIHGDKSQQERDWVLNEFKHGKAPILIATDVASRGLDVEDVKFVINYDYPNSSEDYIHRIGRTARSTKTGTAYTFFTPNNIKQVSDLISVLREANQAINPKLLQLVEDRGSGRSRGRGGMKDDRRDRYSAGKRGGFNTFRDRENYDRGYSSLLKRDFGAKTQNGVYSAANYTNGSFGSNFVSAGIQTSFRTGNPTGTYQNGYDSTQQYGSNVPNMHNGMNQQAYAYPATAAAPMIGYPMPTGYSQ
UniProt P14618, whole entry, looked up: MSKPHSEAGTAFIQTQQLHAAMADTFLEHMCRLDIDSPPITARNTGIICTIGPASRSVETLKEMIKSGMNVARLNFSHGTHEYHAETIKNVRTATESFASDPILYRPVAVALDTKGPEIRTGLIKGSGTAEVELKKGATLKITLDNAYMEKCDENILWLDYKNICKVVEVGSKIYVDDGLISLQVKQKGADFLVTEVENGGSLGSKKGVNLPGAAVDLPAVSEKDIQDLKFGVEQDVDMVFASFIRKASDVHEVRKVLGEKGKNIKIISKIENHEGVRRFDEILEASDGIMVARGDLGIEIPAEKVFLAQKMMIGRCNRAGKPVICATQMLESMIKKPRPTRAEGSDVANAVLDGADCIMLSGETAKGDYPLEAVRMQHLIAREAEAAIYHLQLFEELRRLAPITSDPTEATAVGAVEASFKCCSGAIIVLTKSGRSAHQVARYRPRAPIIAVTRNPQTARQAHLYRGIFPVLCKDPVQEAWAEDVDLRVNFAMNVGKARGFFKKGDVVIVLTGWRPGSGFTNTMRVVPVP
UniProt P17706: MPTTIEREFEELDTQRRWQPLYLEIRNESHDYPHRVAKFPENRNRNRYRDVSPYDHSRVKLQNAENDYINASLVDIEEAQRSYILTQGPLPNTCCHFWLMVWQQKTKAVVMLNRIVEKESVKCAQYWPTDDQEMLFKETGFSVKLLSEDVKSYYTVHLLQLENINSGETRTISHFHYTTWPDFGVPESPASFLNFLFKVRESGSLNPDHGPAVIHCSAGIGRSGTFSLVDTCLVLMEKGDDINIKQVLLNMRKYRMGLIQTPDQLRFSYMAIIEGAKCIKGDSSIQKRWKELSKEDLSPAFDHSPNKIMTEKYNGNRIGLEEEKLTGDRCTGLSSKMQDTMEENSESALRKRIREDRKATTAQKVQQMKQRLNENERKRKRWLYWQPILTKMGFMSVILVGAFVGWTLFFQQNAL
UniProt P13498: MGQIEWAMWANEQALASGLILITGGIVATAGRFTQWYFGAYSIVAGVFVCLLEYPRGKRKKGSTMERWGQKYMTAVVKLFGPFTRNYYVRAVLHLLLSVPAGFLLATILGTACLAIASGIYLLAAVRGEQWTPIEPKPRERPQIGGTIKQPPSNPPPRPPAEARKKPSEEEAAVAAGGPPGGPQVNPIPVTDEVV

Compound: Nc1nc2c(ncn2[C@@H]2O[C@H](COP(=O)(O)OP(=O)(O)OP(=O)(O)O)[C@@H](O)[C@H]2O)c(=O)[nH]1 [guanosine triphosphate]
Assay: NP40-soluble protein abundance relative to vehicle (solubility fold change) (ratio); higher = more soluble protein in presence of GTP
Description: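 Solubility proteome profiling in Jurkat crude lysate. Lysate was treated with Mg-GTP (0.1-10 mM) for 10 min at room temperature and 3 min at 37 °C, then solubilised with 0.8% NP40 and benzonase, followed by ultracentrifugation. Proteins were quantified by TMT10 LC-MS/MS; the value is the NP40-soluble abundance relative to the NP40-processed vehicle, from 3 independent experiments.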

Target | NP40-soluble protein abundance (concentration: 0.1mM) | NP40-soluble protein abundance (concentration: 0.5mM) | NP40-soluble protein abundance (concentration: 1mM) | NP40-soluble protein abundance (concentration: 2mM) | NP40-soluble protein abundance (concentration: 4mM) | NP40-soluble protein abundance (concentration: 6mM) | NP40-soluble protein abundance (concentration: 8mM) | NP40-soluble protein abundance (concentration: 10mM)
UniProt P22694 and related entries | 1.09 ± 0.11 | 1.1 ± 0.14 | 0.937 ± 0.089 | 1.05 ± 0.15 | 0.984 ± 0.11 | 1.02 ± 0.12 | 0.916 ± 0.068 | 0.974 ± 0.11
UniProt P17844 and related entries | 1.02 ± 0.043 | 1.04 ± 0.05 | 1 ± 0.033 | 1.08 ± 0.043 | 1.19 ± 0.016 | 1.23 ± 0.018 | 1.29 ± 0.036 | 1.32 ± 0.018
UniProt P14618 and related entries | 0.97 ± 0.03 | 0.994 ± 0.076 | 0.905 ± 0.052 | 0.902 ± 0.052 | 0.914 ± 0.046 | 0.878 ± 0.067 | 0.858 ± 0.036 | 0.835 ± 0.017
UniProt P17706 and related entries | 0.995 ± 0.051 | 0.982 ± 0.041 | 0.937 ± 0.058 | 0.958 ± 0.044 | 0.967 ± 0.022 | 0.937 ± 0.043 | 0.942 ± 0.035 | 0.928 ± 0.037
UniProt P13498 and related entries | 1.01 ± 0.053 | 1 ± 0.073 | 1.02 ± 0.13 | 0.941 ± 0.14 | 0.929 ± 0.09 | 0.941 ± 0.086 | 0.973 ± 0.051 | 0.963 ± 0.069
